Measured values: patent US20190071501A1 (REYOUNG SUZHOU BIOLOGY SCIENCE AND TECHNOLOGY, published 2019)
No constants are given. Whether binding was seen depends on the method and setting. Some binding calls cover weakened binding; strength is not graded here.

The chains behind the UniProt entries cited, without tags or fusion partners. Where a name states a change or a piece, a line headed by the entry shows the natural chain unless it says otherwise. Residues count along the entry.
UniProt Q15116: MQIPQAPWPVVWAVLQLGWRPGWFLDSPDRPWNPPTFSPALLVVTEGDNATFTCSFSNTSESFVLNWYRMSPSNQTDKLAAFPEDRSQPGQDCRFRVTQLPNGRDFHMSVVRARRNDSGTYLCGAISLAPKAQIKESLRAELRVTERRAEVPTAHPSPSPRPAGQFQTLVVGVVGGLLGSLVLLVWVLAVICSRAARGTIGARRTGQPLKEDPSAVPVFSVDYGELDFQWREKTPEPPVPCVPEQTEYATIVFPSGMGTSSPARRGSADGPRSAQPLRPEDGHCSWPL
PD1 on PD1-27 cells (PD1 over-expressed CHO-K1 stable transfected cells): residues 25-288 of Q15116

Assays:
[1] = target: recombinant M.fascicularis PD-1 (M.fascicularis) (UniProt B0LAJ3); experiment: ELISA, protein coated at 0.5 µg/mL, antibody 0.5 µg/mL, goat anti-human FAB-HRP
[2] = target: recombinant human PD-1 protein (human) (UniProt Q15116); experiment: as above
PD1-His = target: T1, PD1-His (human, UniProt Q15116 25-167, limits assumed); experiment: ELISA: PD1-His on the plate, graded antibody, HRP-labelled second antibody, OD450
T1 construct: also called hPD-1; not shown: His tag

[3] = target: recombinant M.fascicularis PD-1 (M.fascicularis) (UniProt B0LAJ3); experiment: ELISA: protein coated at 0.5 ug/mL, antibody at 0.5 ug/mL, goat anti-human FAB-HRP, OD450
[4] = target: recombinant human PD-1 protein (human) (UniProt Q15116); experiment: as above
[5] = target: PD1 on PD1-27 cells (PD1 over-expressed CHO-K1 stable transfected cells) (UniProt Q15116); experiment: Cell binding: PD1-27 (PD1 over-expressed CHO-K1) cells on the plate, graded antibody, EU-labelled second antibody, fluorescence
PD1-Fc-His [6] = target: T2, PD1-Fc-His (UniProt Q15116 25-167, limits assumed); experiment: Inhibition ELISA: graded antibody pre-incubated with PD1-Fc-His, added to a plate laid with 'PD1-Fc' (so in the source), anti-His-HRP, OD450
T2 construct: not shown: Fc; His tag
Experimental: Incubate the gradient diluted antibody and a certain concentration of PD1-Fc-His in advance, then add the mixture to the plate laid with PD1-Fc. Add anti-His-HRP to the plate after incubating and washing. Then perform coloration. Draw up the reaction curve by fitting of readings (see FIG. 7 for results) to calculate the IC50 value.

[7] = target: PD1 on PD1-27 cells (PD1 over-expressed CHO-K1 stable transfected cells) (UniProt Q15116); experiment: Cell binding: PD1-27 (PD1 over-expressed CHO-K1) cells on the plate, graded antibody, anti-mouse-EU, fluorescence
[8] = target: PD1 on PD1-27 cells (PD1 over-expressed CHO-K1 stable transfected cells) (UniProt Q15116); experiment: Cell inhibition: PD1-27 (PD1 over-expressed CHO-K1) cells, graded antibody together with 'PD1-Fc' (so in the source), anti-Human-EU, fluorescence
PD1-Fc-His [9] = target: T2, PD1-Fc-His; experiment: Inhibition ELISA: graded antibody pre-incubated with PD1-Fc-His, added to a plate coated with 'PD1-Fc' (so in the source), anti-His-HRP, OD450
Experimental: Incubate the gradient diluted antibody and a certain concentration of PD1-Fc-His in advance, then add the mixture to the plate enveloped with PD1-Fc. Add anti-His-HRP to the plate after incubating and washing. Then perform coloration. Draw up the reaction curve by fitting of readings (see FIG. 2 for results) to calculate the IC50 value.

Measured: binding

B1: humanized antibody anti-PD-1 (antibody, V domains shown)
VH: EVQLVESGGGLVKPGGSLRLSCAASGFTFSSYTMSWVRQAPGKGLEWVATISNGGSFTYYPDSMKGRFTISRDNSKNTLYLQMSSLRAEDTAVYYCARDSDYYGIFDYWGQGTTVTVSS
VL: DIVMTQSPLSLPVTPGEPASISCRSSKSLLYKDGKTYLNWYLQKPGQSPQLLIYLMSTRASGVPDRFSGSGSGTDFTLKISRVEAEDVGVYYCQQLVEDPFTFGQGTKLEIKR
notes: Human constant regions; also called humanized PD-1 antibody; hup01 (plasmids P3.1GS-hup01-HC / P3.1GS-hup01-LC)
not listed: [7] | [8] | PD1-Fc-His [9]
binds: all other assays above

B2: mouse anti-PD-1 (antibody, V domains shown)
VH: DVKLVESGGGLVKPGGSLKLSCAASGFTFSSYTMSWVRQTPEKRLEWVATISNGGSFTYYPDSMKGRFTISRDNAKNTLYLQMSSLKSEDTAMYYCTRDSDYYGIFDYWGQGTTLTVSS
VL: DIVITQDELSNPVTSGESVSISCRSSKSLLYKDGKTYLNWFLQRPGQSPQLLIYLMSTRASGVSDRFSGSGSGTDFTLEISRVKAEDVGVYYCQQLVEDPFTFGSGTKLEIKR
notes: also called mouse anti-PD-1 monoclonal antibody; mouse PD-1 antibody
binds: [7] | [8] | PD1-Fc-His [9]
